Data published in US20210309652A1, “ISOXAZOLINE COMPOUNDS FOR CONTROLLING INVERTEBRATE PESTS” (priority 2018, published 2021).
Some entries share one result that the patent states for a list of compounds. For at least one compound, name, drawing or mass did not settle the structure.

Tests used:
Type in all cases: in vivo
Details in all cases: 6 days
[1] = test system: Western Flower Thrips (Frankliniella occidentalis (Pergande)); assay: Test G: control of Western Flower Thrips on Soleil bean plant, contact and/or systemic
Procedure: Test Compounds were formulated using a solution containing 10% acetone, 90% water and 300 ppm Activator 90® non-ionic surfactant (Loveland Products, Loveland, Colo., USA). The formulated Compounds were applied in 1 mL of liquid through an atomizer nozzle positioned 1.27 cm (0.5 inches) above the top of each test unit. Test Compounds were sprayed at the rates indicated, and each test was replicated three times.
For evaluating control of the Western Flower Thrips (Frankliniella occidentalis (Pergande)) through contact and/or systemic means, the test unit consisted of a small open container with a 5-7-day-old Soleil bean plant inside.
Test Compounds were formulated and sprayed at 250, 50, 10 and 2 ppm. After spraying, the test units were allowed to dry for 1 hour, and then ˜60 thrips (adults and nymphs) were added to each unit. A black, screened cap was placed on top, and the test units were held for 6 days at 25° C. and 45-55% relative humidity. Each test unit was then visually assessed for plant damage and insect mortality.

[2] = test system: diamondback moth (Plutella xylostella (L.)); assay: Test A: control of diamondback moth on mustard plant, foliar spray
[3] = test system: fall armyworm (Spodoptera frugiperda (J. E. Smith)); assay: Test B: control of fall armyworm on corn (maize) plant, foliar spray

Row | Compound | control efficacy: plant damage (30% or less plant damage and/or 100% mortality) ([1]; sprayed at 2 ppm) | control efficacy: plant damage (30% or less plant damage and/or 100% mortality) ([1]; sprayed at 10 ppm) | control efficacy: feeding damage (40% or less feeding damage and/or 100% mortality) ([2]; sprayed at 2 ppm) | control efficacy: feeding damage (40% or less feeding damage and/or 100% mortality) ([2]; sprayed at 10 ppm) | control efficacy: feeding damage (40% or less feeding damage and/or 100% mortality) ([3]; sprayed at 2 ppm) | control efficacy: feeding damage (40% or less feeding damage and/or 100% mortality) ([3]; sprayed at 10 ppm)
1 | O=C(NC1C[S+]([O-])C1)c1ccc(C2=NOC(c3cc(Cl)c(F)c(Cl)c3)(C(F)(F)F)C2)c2ccoc12 (single isomer, unassigned) [Compound 57, 4-(5-(3,5-dichloro-4-fluorophenyl)-5-(trifluoromethyl)-4,5-dihydroisoxazol-3-yl)-N-(1-oxidothietan-3-yl)benzofuran-7-carboxamide] | ≤ 30% | ≤ 30% | ≤ 40% | ≤ 40% | ≤ 40% | ≤ 40%
2 | O=C(NC1C[S+]([O-])C1)c1ccc(C2=NOC(c3ccc(F)c(C(F)(F)F)c3)(C(F)(F)F)C2)c2ccoc12 (single isomer, unassigned) [Compound 71] | ≤ 30% | – | – | – | – | –
3 | CNC(=O)c1ccc(C2=NOC(c3cc(Cl)cc(Cl)c3)(C(F)(F)F)C2)c2ccoc12 (stereo not shown) [Compound 14] | – | ≤ 30% | ≤ 40% | ≤ 40% | – | ≤ 40%
4 | N#CCNC(=O)c1ccc(C2=NOC(c3cc(Cl)c(F)c(Cl)c3)(C(F)(F)F)C2)c2ccoc12 (stereo not shown) [Compound 17] | – | – | ≤ 40% | ≤ 40% | ≤ 40% | ≤ 40%
5 | O=C(NCc1ncccn1)c1ccc(C2=NOC(c3cc(Cl)c(F)c(Cl)c3)(C(F)(F)F)C2)c2ccsc12 (stereo not shown) [Compound 20, 4-[5-(3,5-dichloro-4-fluorophenyl)-4,5-dihydro-5-(trifluoromethyl)-3-isoxazolyl]-N-(2-pyrimidinylmethyl)benzo[b]thiophene-7-carboxamide] | ≤ 30% | ≤ 30% | ≤ 40% | ≤ 40% | ≤ 40% | ≤ 40%
6 | C[S+]([O-])CCNC(=O)c1ccc(C2=NOC(c3cc(Cl)c(F)c(Cl)c3)(C(F)(F)F)C2)c2occc12 (stereo not shown) [Compound 26] | – | – | – | ≤ 40% | – | –
7 | CC(CS(C)(=O)=O)NC(=O)c1ccc(C2=NOC(c3cc(Cl)c(F)c(Cl)c3)(C(F)(F)F)C2)c2occc12 (stereo not shown) [Compound 27] | – | – | – | ≤ 40% | – | –
8 | NC(=O)c1ccc(C2=NOC(c3cc(Cl)c(F)c(Cl)c3)(C(F)(F)F)C2)c2occc12 (stereo not shown) [Compound 34] | – | – | – | ≤ 40% | – | –
9 | CC(C)(C#N)NC(=O)c1ccc(C2=NOC(c3cc(Cl)c(F)c(Cl)c3)(C(F)(F)F)C2)c2ccoc12 (stereo not shown) [Compound 37] | – | – | ≤ 40% | ≤ 40% | ≤ 40% | ≤ 40%
10 | CCC(CSC)NC(=O)c1ccc(C2=NOC(c3cc(Cl)c(F)c(Cl)c3)(C(F)(F)F)C2)c2ccoc12 (stereo not shown) [Compound 43] | – | – | ≤ 40% | ≤ 40% | – | –
11 | CCC(CS(C)(=O)=O)NC(=O)c1ccc(C2=NOC(c3cc(Cl)c(F)c(Cl)c3)(C(F)(F)F)C2)c2ccoc12 (stereo not shown) [Compound 44] | – | – | ≤ 40% | ≤ 40% | – | –
12 | CCC(C[S+](C)[O-])NC(=O)c1ccc(C2=NOC(c3cc(Cl)c(F)c(Cl)c3)(C(F)(F)F)C2)c2ccoc12 (stereo not shown) [Compound 45] | – | – | – | ≤ 40% | – | –
13 | CN1CC(NC(=O)c2ccc(C3=NOC(c4cc(Cl)c(F)c(Cl)c4)(C(F)(F)F)C3)c3ccoc23)C1 (stereo not shown) [Compound 48] | – | – | ≤ 40% | ≤ 40% | ≤ 40% | ≤ 40%
14 | CNC(=O)C1(NC(=O)c2ccc(C3=NOC(c4cc(Cl)c(F)c(Cl)c4)(C(F)(F)F)C3)c3ccoc23)CC1 (stereo not shown) [Compound 49] | – | ≤ 30% | ≤ 40% | ≤ 40% | ≤ 40% | ≤ 40%
15 | N#CC1(NC(=O)c2ccc(C3=NOC(c4cc(Cl)c(F)c(Cl)c4)(C(F)(F)F)C3)c3ccoc23)CC1 (stereo not shown) [Compound 50] | – | – | – | ≤ 40% | ≤ 40% | ≤ 40%
16 | CS(=O)(=O)N1CC(NC(=O)c2ccc(C3=NOC(c4cc(Cl)c(F)c(Cl)c4)(C(F)(F)F)C3)c3ccoc23)C1 (stereo not shown) [Compound 51] | – | – | ≤ 40% | ≤ 40% | ≤ 40% | ≤ 40%
17 | CCNC(=O)C1(NC(=O)c2ccc(C3=NOC(c4cc(Cl)c(F)c(Cl)c4)(C(F)(F)F)C3)c3ccoc23)CC1 (stereo not shown) [Compound 52] | – | – | ≤ 40% | ≤ 40% | ≤ 40% | ≤ 40%
18 | N#CCCNC(=O)c1ccc(C2=NOC(c3cc(Cl)c(F)c(Cl)c3)(C(F)(F)F)C2)c2ccoc12 (stereo not shown) [Compound 53] | – | – | ≤ 40% | ≤ 40% | ≤ 40% | ≤ 40%
19 | CC(C#N)NC(=O)c1ccc(C2=NOC(c3cccc(C(F)(F)F)c3)(C(F)(F)F)C2)c2ccoc12 (stereo not shown) [Compound 63] | – | – | ≤ 40% | – | ≤ 40% | –
20 | O=C(NC1CC1)c1ccc(C2=NOC(c3ccc(F)c(C(F)(F)F)c3)(C(F)(F)F)C2)c2ccoc12 (stereo not shown) [Compound 67] | – | – | ≤ 40% | – | ≤ 40% | –
21 | CNC(=O)C(C)NC(=O)c1ccc(C2=NOC(c3cc(Cl)c(F)c(Cl)c3)(C(F)(F)F)C2)c2ccsc12 (stereo not shown) [Compound 73] | – | – | ≤ 40% | ≤ 40% | – | ≤ 40%
22 | O=CNCc1ccc(C2=NOC(c3cc(Cl)cc(Cl)c3)(C(F)(F)F)C2)c2ccoc12 (stereo not shown) [Compound 84] | – | – | ≤ 40% | – | – | –
23 | O=C(NCc1ncccn1)c1ccc(C2=NOC(c3cc(Cl)cc(Cl)c3)(C(F)(F)F)C2)c2occc12 (stereo not shown) [Compound 89] | – | – | ≤ 40% | ≤ 40% | – | ≤ 40%
24 | O=C(NC1CC1)c1ccc(C2=NOC(c3cc(Cl)c(F)c(Cl)c3)(C(F)(F)F)C2)c2occc12 (stereo not shown) [Compound 93] | – | – | ≤ 40% | ≤ 40% | ≤ 40% | ≤ 40%
25 | CCNC(=O)C1(NC(=O)c2ccc(C3=NOC(c4cc(Cl)c(F)c(Cl)c4)(C(F)(F)F)C3)c3occc23)CC1 (stereo not shown) [Compound 94] | – | – | – | ≤ 40% | – | –
26 | N#CC1(NC(=O)c2ccc(C3=NOC(c4cc(Cl)c(F)c(Cl)c4)(C(F)(F)F)C3)c3occc23)CC1 (stereo not shown) [Compound 95] | – | – | ≤ 40% | – | – | –
27 | CNC(=O)C1(NC(=O)c2ccc(C3=NOC(c4cc(Cl)c(F)c(Cl)c4)(C(F)(F)F)C3)c3occc23)CC1 (stereo not shown) [Compound 96] | – | – | – | ≤ 40% | – | –
28 | N#CCCNC(=O)c1ccc(C2=NOC(c3cc(Cl)c(F)c(Cl)c3)(C(F)(F)F)C2)c2occc12 (stereo not shown) [Compound 97] | – | – | ≤ 40% | ≤ 40% | – | ≤ 40%
29 | CC(CC#N)NC(=O)c1ccc(C2=NOC(c3cc(Cl)c(F)c(Cl)c3)(C(F)(F)F)C2)c2occc12 (stereo not shown) [Compound 98] | – | – | ≤ 40% | ≤ 40% | – | ≤ 40%
30 | CC(C#N)NC(=O)c1ccc(C2=NOC(c3cc(Cl)c(F)c(Cl)c3)(C(F)(F)F)C2)c2sccc12 (stereo not shown) [Compound 111] | – | – | ≤ 40% | ≤ 40% | ≤ 40% | ≤ 40%
